These results are taken from PubChem BioAssay AID1347423 (Functional Genomics Laboratory (NCATS/FGL), 2020).

The whole screen tested about 52,000 sequences, of which about 210 (0.4%) were called active.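 How the source made its calls: active means gene whose silencing raises cell survival under the drug, median off-target-corrected z-score across its silencing RNAs 2 or more; inactive means the rest.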 The list shows a part of the results.

The test can be described thus: Resistance to Poly (ADP-Ribose) Polymerase inhibitor: Gene Identification via Genome-wide siRNA Screen. As to conditions: mouse BRCA2 R2336H ES cells, olaparib, CellTiter-Glo viability; hits give high values. Summed up: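 Mouse BRCA2 R2336H ES cells were reverse-transfected with siRNA (20 nM final), treated at 48 h with 500 nM olaparib, and read by CellTiter-Glo after 72 h. Scores: MAD-based z per siRNA, median per gene, seed off-target correction.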
As to “GCUAGUUAUCUAAUCUCUGTT against B230104P22Rik”, the z-score was inactive: -1.64.

Regarding GGUAAAGAUCUGGAGACGATT against Pgam1, the z-score is inactive: -0.422.

On to “GGAGAAGCGGCAAAUGGAATT against 2510049I19Rik”, for which the z-score was inactive: -0.608.

As to GGACCAAAACACUACCAAUTT against Tinag, the z-score is inactive: -0.874.

For GGCCUUCAGCACUUGUGUGTT against Olfr585, the z-score is inactive: 0.495.

Regarding CCAAGUUCUAUCAACGAAGTT against Olfr174, the z-score is inactive: 1.52.

Consider GCUGCCAAUACAAAUUGUCTT against Nalp9a, for which the z-score was inactive: 0.188.

GGUCAAACUGAAGAAGGAGTT against Slc7a7: the z-score was inactive: 1.64.

As for GGAAGUCGGGCAAAUACAATT against Tacstd2, the z-score is inactive: -0.281.

In the case of CGGCUUACCAGUCCUGUUUTT against Gpr124, the z-score was inactive: -1.2.

For the sequence “GGUCCAAAGAUAGAAGCCATT against 4930569K13Rik”, the z-score was inactive: 1.06.

Regarding “GGACCAGUUCCUUAAGUUUTT against 1100001I19Rik”, the z-score is inactive: 0.345.

Regarding GGCGCAGUAAAGAGGAGAUTT against Ccnb3, the z-score is inactive: -2.02.

With GGCUUUAACUAAUUAUGGATT against Pcm1, the z-score is inactive: 0.363.

Consider GGUGGACUAUCCUAAGCACTT against Pdzk4, for which the z-score is inactive: 0.604.

Consider GCUAAAGUGAGCAGCGGGATT against Rgs19ip3, for which the z-score was inactive: -0.816.

Consider CCAUUGAUCUCGUCUCCCATT against Impdh1, for which the z-score is inactive: -0.511.

For GAGUCAAAACAGCAGUGCATT against Cpsf4, the z-score was inactive: -0.477.

Consider GCUUUUCUUCUUCAUCUCUTT against Olfr1336, for which the z-score is inactive: 0.0717.

Turning to GCUGCUGAGGUACUUGCUATT against Pcsk1n, the z-score is inactive: -1.22.

Turning to GCACAUAGUGUAUCUAUACTT against Cd86, the z-score is inactive: 0.859.

Take GCCUGAUGAAGACAUGCAUTT against BC050210: the z-score was inactive: 1.78.

As for GGUAACCAUUUCUUCUGUUTT against Crym, the z-score was inactive: -1.38.

Consider GGCUUCAAGAUGUUCGGCUTT against BC023181, for which the z-score was inactive: 1.09.

Regarding GCAAUGGUUUCGGCUACGATT against Hoxb3, the z-score was inactive: 0.478.

For the sequence GCUGAGCAAUCUGUAGGGCTT against Spry3, the z-score is inactive: 1.87.

On to GGCAAAAUCCCAUACGAAATT against Itk, for which the z-score was inactive: 1.46.

Regarding CGCUUUCACGACAUGGAACTT against Tas1r1, the z-score was inactive: 1.33.

In the case of GGAGAAGAUCGGAUGGCGATT against Itgb5, the z-score was inactive: -0.391.

Regarding “GGAGGACACAGAUUCUACUTT against 9830169C18Rik”, the z-score is inactive: 1.82.

For the sequence CCACAGGUUACAACAUAAATT against Pign, the z-score was inactive: -0.0296.

For “CCUAUCAUUGGACCUUAAATT against 4930435C18Rik”, the z-score was inactive: -0.879.

For the sequence GGAUAUGACUAGGUGAAUUTT against Ebf3, the z-score is inactive: -0.0915.

Consider GGAGUCAUAUCACAACUCATT against Ldb2, for which the z-score was inactive: -0.227.

Regarding GGGAAUAUAAUUAAAGGUGTT against Sptlc2, the z-score was inactive: -1.3.

With GCUUCAAAAGUCUCCAUUGTT against Gm587, the z-score was inactive: -0.254.

Consider GUGGGAAUUCUGAAAAAUATT against V1re7, for which the z-score was inactive: -0.115.

For “CCUCUCUAGGCCAUGUUCUTT against 1110008P14Rik”, the z-score was inactive: -2.04.

Take GGAAAUUUUUUCCUUUCCUTT against Olfr211: the z-score is inactive: -0.146.

Turning to GGCUGAGGUGCUACAUACATT against BC005752, the z-score was inactive: -0.03.

Take GGUCACAAGUGUAAUACUATT against Bag4: the z-score was inactive: -2.34.

Regarding GCACAAGACUCUUUCAGUUTT against Lip1, the z-score was inactive: 0.234.

Regarding GGAAUUCAAGUUCAUCCUGTT against P2ry4, the z-score is inactive: 0.0867.

Regarding GCAACAAAGGCUUUCCCUATT against Tusc5, the z-score was inactive: -1.9.

As to GGCCAUUUUGGAUCAUACATT against Actl6a, the z-score is inactive: -1.98.

On to GGUUCAGUAUAUCAUCUCUTT against Znf335, for which the z-score was inactive: -3.03.

Turning to “GGUAAUCUUUGAAAACCCUTT against 9030406N13Rik”, the z-score is inactive: 0.772.

Take “GGACUACAGAUGCAUACCATT against 9830163H01Rik”: the z-score was inactive: -0.329.

As to “GCCAUACCCUCCAAUAAAGTT against 1810043G02Rik”, the z-score was inactive: -0.367.

“CGCAGGAACACCGAUGUAUTT against D8Ertd319e”: the z-score is inactive: -0.81.

As for GCUUACAUGCACUAGCCUGTT against AI114950, the z-score is inactive: -0.369.

As for GGGACACCUUCCGUAACUATT against Gcdh, the z-score is inactive: -0.691.

GGAUAUGGCCCAGUUCAUATT against Gfer: the z-score is inactive: -0.951.

As to GCUCACACUUUAAAGAGGGTT against Supv3l1, the z-score is inactive: 0.449.

Turning to AGUGCUUUGUAAUGCUUGGTT against Hist1h2bg, the z-score was inactive: -1.23.

With GGAGUGGAUGUGAUUAUCATT against Dao1, the z-score was inactive: 0.369.

As to GGCAUGUUUGAGUUUCAGATT against Lsm4, the z-score is inactive: -2.43.

On to “GGACCUUACUAACUUGACCTT against 4921529O18Rik”, for which the z-score was inactive: 1.08.

As to GGAUCUGAAAGACUAUUUCTT against Tardbp, the z-score is inactive: 0.109.

Turning to GGCAAUGAGAAAGUUACUCTT against Olfr1102, the z-score was inactive: 0.632.

With GGGUAGAAUUGUUUUCCUUTT against Clic4, the z-score is inactive: 1.45.

Turning to GGCUGUAAGGGAACAGCUATT against Irf2bp1, the z-score is inactive: 0.313.

Turning to GCUAGAUUUGAUGGUUCAGTT against Cacng5, the z-score is inactive: -0.84.

With GGCAAGAGCGGAAAAUCACTT against Foxo1, the z-score is inactive: -0.519.

In the case of CCUUGGAAAAGCUUGAUGUTT against Pip5k1b, the z-score is inactive: -2.5.

Regarding GGUGAAGGUGAACAAGGACTT against Myh9, the z-score was inactive: 0.383.

As to GGAAACAACCUGCUGAUCGTT against Sp2, the z-score was inactive: 0.563.

With GCUGAAACAGUUUGAGCGATT against Bcar1, the z-score was inactive: -1.01.

Regarding GGGUGCAUUUAAGUUCUAATT against Nrbf2, the z-score was inactive: -1.06.

Turning to GGUUACGUGAGGAUAAAAUTT against Gm587, the z-score is inactive: -0.827.

As for GGACUAUUUCCUUUGUGGGTT against Olfr31, the z-score was inactive: 0.697.

As for GGAGCAGUGGGAAAUUCCATT against Narg2, the z-score is inactive: -1.23.

In the case of GGAAGCUUACAUUGUGAAGTT against Unc5c, the z-score is inactive: 0.265.

As to GGAGAGGACAAAUUAAAGATT against Ywhae, the z-score was inactive: 1.7.

In the case of GCAUGCGUGAGAAACUGAUTT against Clra, the z-score is inactive: -1.62.

Take GGUAUUAAGUAGGUGUUAATT against Sec22l3: the z-score is inactive: -0.268.

With GGCAUUCAAGGAUAUGCUGTT against Xpr1, the z-score is inactive: -0.759.

As to GGGACCCUUCUACAAAAACTT against Pias3, the z-score was active: 2.3.

As to UAUUUAUCCACUACUGGAATT against Olfr969, the z-score is inactive: -0.954.

As to “GCAGAUGAUACGCAUGCAGTT against 1810060J02Rik”, the z-score is inactive: -0.771.

As for “GGUGCUGAAGAUGACAUCCTT against A930041I02Rik”, the z-score is inactive: 1.3.

Turning to GGACAACUCGAGUCUUAAATT against Poln, the z-score is inactive: -2.2.

Regarding GGUUUAACAACUUACUUUCTT against Dmgdh, the z-score was inactive: 0.0843.

Regarding CGCAUCAUCAAUGAUGACCTT against Crmp1, the z-score is inactive: 0.654.

GCCAUUAGUGUGGAGUACUTT against Mrgprb8: the z-score was inactive: -1.06.

In the case of CGUGGAAGGCAAGAUGCAUTT against Tmem55b, the z-score was inactive: 0.272.

GCCUGAACUUUGACAGAACTT against Cxcr3: the z-score is inactive: -0.0574.

For GGUUACAGAGCAAAGUCCUTT against Zfml, the z-score was inactive: -0.00597.

Take CCCGGAGUGGAAUUUACAGTT against Llglh: the z-score was inactive: -1.46.

Regarding CCUUACCGCCUUAAACUGATT against Mylip, the z-score is inactive: 0.998.

For GGAUAGAGAUGGUUGUCCATT against Phf5a, the z-score was inactive: -2.97.

With GGAAGAGAAGAUUUUGGAUTT against Il1f9, the z-score was inactive: 0.411.

As for GGAAGGAAAUAAAAAGGGATT against Pcdhb20, the z-score is inactive: 1.07.

Regarding GGAAAAUGUGAAACAGCUATT against Dhx40, the z-score is inactive: 0.452.

As to GGGUUUCUGUUAAUCCACATT against Hist1h3g, the z-score is inactive: -1.25.

As for GGGAAAAACACCAUUUCCUTT against Olfr275, the z-score is inactive: 0.114.

Regarding GGUAGAGGUUAUAUAGGCATT against Ms4a11, the z-score was inactive: -0.137.

As for GGAAUUUCAAGACAAAGGUTT against Scap2, the z-score is inactive: -1.11.

For GCAUUUGAAAUGCUACAGCTT against Rhoq, the z-score is inactive: 0.865.

As to CCGUAUAUUGACCUAAUGGTT against Ppp2ca, the z-score was inactive: -0.56.

For GGCAUAAACUACAUUUGAUTT against Edg3, the z-score is inactive: -0.282.

With GGAAAAUUUACACUGACCUTT against Ian3, the z-score is inactive: 0.443.

Consider GGGAAGAACAAAUGGUUUUTT against Rpl27, for which the z-score was inactive: -3.04.

GCUGCAUGUUACCUACUUGTT against Pold3: the z-score is inactive: -0.566.

For the sequence GCUGCUCGUUAAAGCCGGATT against Ankrd6, the z-score is inactive: -0.994.
